system: HEK cells; experiment: Cycloheximide chase, half-life of truncated and mutated FLAG-Atoh1; format: cell-based; settings: cycloheximide 100 ug/ml, 4-hour time frame, compared with wild-type

Molecule | effect of serine to alanine mutation on Atoh1 half-life
S328A: Atoh1 with serine 328 mutated to alanine (protein, UniProt P48985 1-351, looked up, variant S328A) Transcription factor Atoh1: MSRLLHAEEWAEVKELGDHHRHPQPHHVPPLTPQPPATLQARDLPVYPAELSLLDSTDPRAWLTPTLQGLCTARAAQYLLHSPELGASEAAAPRDEADSQGELVRRSGCGGLSKSPGPVKVREQLCKLKGGVVVDELGCSRQRAPSSKQVNGVQKQRRLAANARERRRMHGLNHAFDQLRNVIPSFNNDKKLSKYETLQMAQIYINALSELLQTPNVGEQPPPPTASCKNDHHHLRTASSYEGGAGASAVAGAQPAPGGGPRPTPPGPCRTRFSGPASSGGYSVQLDALHFPAFEDRALTAMMAQKDLSPSLPGGILQPVQEDNSKTAPRSHRSDGEFSPHSHYSDSDEAS | modestly prolonged
S334A: Atoh1 with serine 334 mutated to alanine (protein, UniProt P48985 1-351, looked up, variant S334A) Transcription factor Atoh1: MSRLLHAEEWAEVKELGDHHRHPQPHHVPPLTPQPPATLQARDLPVYPAELSLLDSTDPRAWLTPTLQGLCTARAAQYLLHSPELGASEAAAPRDEADSQGELVRRSGCGGLSKSPGPVKVREQLCKLKGGVVVDELGCSRQRAPSSKQVNGVQKQRRLAANARERRRMHGLNHAFDQLRNVIPSFNNDKKLSKYETLQMAQIYINALSELLQTPNVGEQPPPPTASCKNDHHHLRTASSYEGGAGASAVAGAQPAPGGGPRPTPPGPCRTRFSGPASSGGYSVQLDALHFPAFEDRALTAMMAQKDLSPSLPGGILQPVQEDNSKTSPRSHRADGEFSPHSHYSDSDEAS | dramatic effect
S331A: Atoh1 with serine 331 mutated to alanine (protein, UniProt P48985 1-351, looked up, variant S331A) Transcription factor Atoh1: MSRLLHAEEWAEVKELGDHHRHPQPHHVPPLTPQPPATLQARDLPVYPAELSLLDSTDPRAWLTPTLQGLCTARAAQYLLHSPELGASEAAAPRDEADSQGELVRRSGCGGLSKSPGPVKVREQLCKLKGGVVVDELGCSRQRAPSSKQVNGVQKQRRLAANARERRRMHGLNHAFDQLRNVIPSFNNDKKLSKYETLQMAQIYINALSELLQTPNVGEQPPPPTASCKNDHHHLRTASSYEGGAGASAVAGAQPAPGGGPRPTPPGPCRTRFSGPASSGGYSVQLDALHFPAFEDRALTAMMAQKDLSPSLPGGILQPVQEDNSKTSPRAHRSDGEFSPHSHYSDSDEAS | modestly prolonged

— patent publication US12618070B2, “Increasing Atoh1 life to drive sensorineural hair cell differentiation” (Massachusetts Eye and Ear Infirmary, priority 2014, dated 2026)
